Measured values: PubChem BioAssay AID651640 (Broad Institute, 2012)
Among all 350,000 compounds or so, about 6,000 (1.7%) were called active. Inconclusive means that the source gave no clear call. Such entries were picked first, then a sample of the others. No stated cut-off is given here; in the data, active means CPE inhibition above about 20% (passing the limit was not always enough); inconclusive means no clear call, values can overlap the other calls; tested in BHK-21 cells.

assay: protection of cells from dengue 2 killing – plate reader, single concentration, primary screen (AID 651640); conditions: DENV2-infected cells, cytopathic effect rescue, at 9.99 µM, hits give high values;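 further: 0% = median of neutral control wells and 100% = median of positive control wells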

| SMILES | CPE inhibition |
| --- | --- |
| Cc1ccc(NC(=O)c2ccc(N3CCCC3=O)cc2)cc1S(=O)(=O)N1CCCCC1 | inconclusive: 49.1% |
| COc1ccc2c3c(n(C)c2c1)[C@@H](CO)N(C(C)=O)CC31CCN(C(=O)Nc2ccc(F)cc2)CC1 | inactive: -2.46% |
| Cc1ccc(S(=O)(=O)N(C)C)cc1NC(=O)CN1C(=O)NC2(CCc3ccccc32)C1=O (configuration not stated) | inconclusive: 22% |
| Nc1[nH]c(C(=O)c2ccccc2)c(-c2ccc(Br)cc2)c1C(=O)c1cccs1 | inactive: -4.1% |
| Nc1c2c(nc3ccccc13)CCCC2 | inconclusive: 29.1% |
| COc1ccc(C(=O)NCCCCCCNC(=O)c2ccc(OC)cc2)cc1 | inconclusive: 46.6% |
| CCOc1ccccc1OCCCNCc1ccccc1 | inconclusive: 36.3% |
| CCOC(=O)C(=O)N(CC)C1CCS(=O)(=O)C1 (configuration not stated) | inconclusive: 24% |
| O=C(NC1CCCCC1)c1cc([N+](=O)[O-])ccc1N1CCCC1 | inconclusive: 28.5% |
| CS(=O)(=O)N1[C@H](C#N)[C@H](c2ccc(C#CC3CC3)cc2)[C@H]1CO | inactive: 4.72% |
| O=C1Cc2ccccc2C(=O)N1c1ccccc1 | inconclusive: 22.7% |
| COC(=O)c1c(NC(=O)Cc2cccs2)sc(C)c1C | inconclusive: 23.7% |
| COc1ccc(NC(=O)CS(=O)(=O)c2ccc(Br)cc2)cc1 | inconclusive: 42.8% |
| O=C1c2ccccc2C(=O)N1CCOc1cccc(Br)c1 | inconclusive: 29% |
| COc1ccccc1-c1ccc2n(c1=O)C[C@H]1[C@H](CO)[C@@H](C(=O)N[C@@H](C)c3ccccc3)[C@@H]2N1C | inactive: -8.56% |
| C[C@H](CO)N1C[C@H](C)[C@@H](CN(C)C(=O)c2ccccc2)Oc2cc(C#CC3CC3)ccc2S1(=O)=O | inactive: -9.24% |
| O=C(CS(=O)c1ccccc1[N+](=O)[O-])Oc1ccc(Br)cc1 (configuration not stated) | inactive: -1.25% |
| Cc1cccc(C)c1NC(=O)C(C)n1c(-c2ccc(=O)[nH]c2)nc2ccccc21 (configuration not stated) | active: 20.7% |
| Cc1cccc(NCc2cc(Cl)ccc2O)n1 | inactive: -0.332% |
| Nc1ccccc1N=Nc1ccccc1N | inconclusive: 57.1% |
| O=C(c1cccnc1)N1CC[C@@H]2[C@@H](CO)Nc3ccc(C4=CCCCC4)cc3[C@@H]21 | inconclusive: 99.8% |
| COc1ccc(NC(=O)N(C)C[C@@H]2Oc3c(NC(=O)c4ccc(-c5nccs5)cc4)cccc3C(=O)N([C@@H](C)CO)C[C@H]2C)cc1 | inconclusive: 22.1% |
| CC(c1ccccc1)n1c(N2CCNCC2)nc2c1c(=O)[nH]c(=O)n2C (configuration not stated) | inactive: 0.33% |
| CN1c2ccc(Br)cc2[C@@H]2[C@@H](CCN2C(=O)C2CCCCC2)[C@@H]1CO | active: 67.1% |

A second format for part of the listing above:
SMILES	CPE inhibition
CS(=O)(=O)N1[C@H](C#N)[C@H](c2ccc(C#CC3CC3)cc2)[C@H]1CO	inactive: 4.72%
O=C1c2ccccc2C(=O)N1CCOc1cccc(Br)c1	inconclusive: 29%
COc1ccccc1-c1ccc2n(c1=O)C[C@H]1[C@H](CO)[C@@H](C(=O)N[C@@H](C)c3ccccc3)[C@@H]2N1C	inactive: -8.56%

(listing goes on)

| SMILES | CPE inhibition |
| --- | --- |
| COC(=O)C1=C(C)N(CC(C)C)C(=S)NC1c1cccc(F)c1 (configuration not stated) | active: 55.9% |
| COc1cccc(-c2ccc3c(c2)[C@@H]2[C@@H](CCN2C(=O)c2ccc4c(c2)OCO4)[C@H](CO)N3C)c1 | inactive: -21.3% |
| COc1ccc(S(=O)(=O)N(C)C[C@@H]2Oc3ccc(NC(=O)Nc4ccc(F)cc4)cc3CC(=O)N([C@@H](C)CO)C[C@H]2C)cc1 | inconclusive: 35.3% |
| N#C[C@@H]1[C@H](c2ccc(C#Cc3ccccc3F)cc2)[C@H](CO)N1C(=O)C1CCC1 | active: 102% |
| COc1cc2cnc(CCCC#N)cc2cc1OC | inconclusive: 22.4% |
| CCCNC(=O)[C@H]1[C@H](CO)[C@H]2Cn3c(ccc(-c4ccc(F)cc4)c3=O)[C@@H]1N2CCC | inactive: -4.04% |
| COc1ccc(-c2cn(CC[C@H]3CC[C@@H](NC(=O)Cc4ccccn4)[C@@H](CO)O3)nn2)cc1 | inactive: 12.8% |
| CC(=O)Nc1ccc(NC(=O)C(C)OC(=O)C2CCC2)cc1 (configuration not stated) | inconclusive: 48.2% |
| C[C@H]1CN([C@@H](C)CO)S(=O)(=O)c2ccc(C#CC3(O)CCCC3)cc2O[C@H]1CN(C)C(=O)Nc1ccccc1 | inconclusive: 34.3% |
| Cc1ccc(-c2nc(C(=O)NCCCN(C)C)cc3c2[nH]c2ccccc23)cc1 | inactive: 13.8% |
| CC(C)Nc1nc(NC2CCCC2)nc(N2CCOCC2)n1 | inconclusive: 33.7% |
| Cc1ccn2c(Nc3ccccc3C)c(-c3ccccn3)nc2c1 | inactive: -14.2% |
| CCCN1[C@H](C(=O)N(C)C)[C@@H](CO)[C@@H]2Cn3c(ccc(/C=C/c4ccccc4)c3=O)[C@@H]21 | active: 55.6% |
| C[C@@H](O)C#Cc1ccc([C@H]2[C@H](CO)N3CCCCN(C(=O)c4ccc(F)cc4)C[C@@H]23)cc1 | active: 22.8% |
| O=c1[nH][nH]c2c1[C@H](c1ccc(Cl)cc1)O[C@H](CCc1ccccc1)C2 | inconclusive: 90.7% |
| CCC(=O)N1[C@H](CO)[C@@H](c2ccccc2)[C@H]1CN(C)C(=O)CN1CCOCC1 | inactive: -6.21% |
| O=C(c1ccc(F)cc1)N1CC(=O)N2[C@H](CO)[C@@H](c3ccc(C#CC4CCCC4)cc3)[C@@H]2C1 | inconclusive: 20.9% |
| Cc1ccc(S(=O)(=O)Nc2ccc3c(c2)C(=O)N([C@@H](C)CO)C[C@H](C)[C@@H](CN(C)C(=O)Nc2ccc(C(F)(F)F)cc2)O3)cc1 | inconclusive: 23.6% |
| Cc1cc(C)cc(N(C(=O)c2sc(C)nc2C)C(C(=O)NC(C)(C)C)c2ccncc2)c1 (configuration not stated) | inactive: 2.5% |
| O=c1ccc(-c2nc3ccccc3n2Cc2ccc(Cl)cc2)c[nH]1 | inconclusive: 22.2% |
| COc1ccccc1NC(=O)c1cnc(SCC(=O)NCCc2ccccc2)n(C)c1=O | inconclusive: 28.3% |
| CCC(=O)N1CC2(CCN(C(=O)Nc3ccc(F)cc3)CC2)c2c([nH]c3cc(OC)ccc23)[C@H]1CO | inactive: -3.92% |
| COC(=O)[C@]12C[C@H](CC(=O)N3CCSCC3)C(=O)N(Cc3ccccc3)C1=C[C@H](C(C)C)O[C@@H]2C1CC1 | inconclusive: 27.9% |
| C[C@H]1CN([C@@H](C)CO)C(=O)c2cccc(N(C)C)c2O[C@@H]1CN(C)Cc1ccc(Cl)c(Cl)c1 | inactive: 4.67% |

| SMILES | CPE inhibition |
| --- | --- |
| C[C@@H]1ON(C)[C@H]2C[C@H]3c4[nH]c5c(-c6ccccc6)cccc5c4CCN3C[C@@H]12 | inactive: 0.022% |
| CN1C(=O)c2cc(NC(=O)C3CCCC3)ccc2OC[C@@H]2O[C@H](CC(=O)NCC3CC3)CC[C@@H]21 | inconclusive: 28.6% |
| CCCNC(=O)C1(C)CCN(C(=O)c2cccnc2Oc2ccccc2)C1 (configuration not stated) | inconclusive: 29.8% |
| C/C(=N\NC(=O)c1c(-c2ccccc2Cl)noc1C)c1cccc(NC(=O)C(C)C)c1 | inconclusive: 36.5% |
| O=C(Cc1cccc2ccccc12)NN=Cc1ccc2c(c1)CCC2 | inconclusive: 21% |
| CC(OC(=O)c1cccc(Cl)c1)C(=O)NC1CCCCC1C (configuration not stated) | inactive: 6.26% |
| C[C@@H]1CN([C@H](C)CO)C(=O)c2cc(-c3ccccc3)cnc2O[C@@H]1CN(C)Cc1ccccn1 | inactive: 2.71% |
| COc1ccc(S(=O)(=O)N2CCCCN3[C@H](CO)[C@H](c4ccc(-c5cccnc5)cc4)[C@H]3C2)cc1 | inactive: -12.4% |
| CC(OC(=O)c1cccc(-n2cnnn2)c1)C(=O)Nc1cccc(Cl)c1 (configuration not stated) | inconclusive: 25% |
| O=C(C[C@H]1CC[C@@H]2[C@H](COC[C@H](O)CN2CCc2ccccc2)O1)NCc1ccc(F)cc1 | inconclusive: 97.7% |
| Cc1noc(C)c1NC(=O)N(C)C[C@H]1Oc2c(NC(=O)c3ccncc3)cccc2C(=O)N([C@H](C)CO)C[C@H]1C | inconclusive: 27.8% |
| COc1ccccc1C=NNC(=O)c1ccccc1OCCOc1ccccc1 | active: 75.2% |
| COCC(=O)Nc1ccc2c(c1)OC[C@@H](C)N(C(=O)Cc1cccnc1)C[C@H](C)[C@@H](OC)CN(C)C2=O | active: 49% |
| COCCOC(=O)N1C(=O)[C@@]2(c3cc(C#CC4(O)CCCCCC4)ccc31)[C@H](c1ccc(OCCO)cc1)N1[C@H](c3ccccc3)[C@H](c3ccccc3)OC(=O)[C@H]1[C@@H]2C(=O)N1CCN(c2ncccn2)CC1 | inactive: 1.13% |
| CC(=O)N(C)C[C@@H]1Oc2ncc(C#CCc3ccccc3)cc2C(=O)N([C@@H](C)CO)C[C@@H]1C | inconclusive: 22% |
| COc1ccc(/C=C(/NC(=O)c2ccccc2)C(=O)NCc2ccncc2)cc1 | inconclusive: 26.5% |
| C[C@H](CO)N1C[C@H](C)[C@@H](CN(C)C(=O)Cc2ccccc2)OCc2ccccc2-c2c(n(C)c3ccccc23)C1=O | inconclusive: 26.1% |
| COC(=O)C[C@@H]1CC[C@@H]2[C@@H](COc3ccc(NC(=O)c4ccccc4)cc3C(=O)N2C)O1 | inactive: 9.29% |
| C[C@@H]1CCCCO[C@@H](CN(C)C(=O)c2ccncc2)[C@@H](C)CN([C@H](C)CO)C(=O)c2cc(NS(=O)(=O)c3ccc(F)cc3)ccc2O1 | inactive: 10.1% |
| N#C[C@@H]1[C@@H](c2ccccc2-c2ccc(F)cc2)[C@H](CO)N1c1ncc(-c2ccccc2)s1 | active: 76.4% |
| COc1cc(NC(=O)Cc2ccc(S(=O)(=O)N3CCOCC3)s2)c(OC)cc1Cl | inconclusive: 30.2% |
| COc1cccc(S(=O)(=O)Nc2ccc3c(c2)C(=O)N(C)[C@@H]2CC[C@@H](CC(=O)NCC4CCCCC4)O[C@@H]2CO3)c1 | inconclusive: 52.3% |
| C[C@H]1CCCCO[C@@H](CN(C)C(=O)c2ccncc2)[C@@H](C)CN([C@@H](C)CO)C(=O)c2cc(N(C)C)ccc2O1 | inactive: 1.1% |
| CCCNC(=O)Nc1ccc2c(c1)C(=O)N(C)[C@H]1CC[C@H](CC(=O)OC)O[C@H]1CO2 | inconclusive: 25.1% |
